From US12085575B2, “Compositions and methods for detecting proteinopathies” (BOARD OF SUPERVISORS OF LOUISIANA STATE UNIVERSITY AND …, priority 2011, dated 2024)
Some of these results come from one statement about several compounds together.

Tested on: Mfn2
Experiment: Mfn2 modification and degradation in A-T/LV shRNA cells treated with mitochondrial depolarizing agents
Type: cell-based, human
Settings: ISG15-silenced A-T cells, 24 hr
Description: Immunoblotting Analysis of Mitochondrial Proteins—Mitochondria were isolated from A-T/LV control and ISG15 shRNA cells using the Miochondrial Isolation Kit (Thermo Scientific Company, 89874). The Dounce homogenization protocol described by the manufacturer was used to isolate mitochondria from cells. Mitochondrial pellets were resuspended in lysis buffer containing 50 mM Tris pH 7.5 and 4% (v/v) SDS. Samples were homogenized and boiled for 10 min. Lysates containing equal protein were then mixed with 6× Laemmli SDS sample buffer (3× final concentration). Samples were boiled again and mitochondrial proteins were analyzed by SDS-PAGE. […] Intensity of the Mfn2 bands was quantitated using BioRad Quantity One software. […]
Many outer mitochondrial membrane (OMM) proteins are ubiquitylated and degraded via the 26S proteasome prior to mitophagy in cells treated with the mitochondrial depolarizing agents (28,29). To test whether ISG15 inhibits polyubiquitylation of OMM proteins, we assessed the fate of Mfn2, an OMM protein and proteasome substrate, in A-T/LV-control and A-T/LV-ISG15-silenced cells treated with two different mitochondrial depolarizing agents, valinomycin and carbonylcyanide m-chlorophenylhydrazone (CCCP). […]

N#CC(C#N)=NNc1cccc(Cl)c1 [CCCP, carbonylcyanide m-chlorophenylhydrazone]
decrease in the free Mfn2 level: 15-20%
